For test [1], the target named is T1, CDH17蛋白细胞外段1~3结构域 (recombinant CDH17 extracellular domains 1-3) (human) (UniProt Q12864).
T1 sequence (looked up): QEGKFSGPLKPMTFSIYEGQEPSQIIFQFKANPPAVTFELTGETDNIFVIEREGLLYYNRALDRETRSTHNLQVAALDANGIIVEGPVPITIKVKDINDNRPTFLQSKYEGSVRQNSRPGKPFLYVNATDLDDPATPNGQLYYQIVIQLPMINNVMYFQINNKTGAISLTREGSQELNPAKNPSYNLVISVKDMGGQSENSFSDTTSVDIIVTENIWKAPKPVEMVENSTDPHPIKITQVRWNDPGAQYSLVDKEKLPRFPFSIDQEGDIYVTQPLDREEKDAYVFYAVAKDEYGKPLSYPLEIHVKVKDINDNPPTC
Briefly: ELISA on CDH17 domains 1-3 (Fig. 5A).

Test [2] has as its target T1, CDH17蛋白细胞外段1~3结构域 (recombinant CDH17 extracellular domains 1-3) (human). Briefly: ELISA with purified nanobodies on hCDH17 (Fig. 3C). Background: In an ELISA, binding on a coated surface is turned into a signal by an enzyme label.

Results are given in words; binding and its absence hold for the method and conditions named. Some results given as binding are weak or reduced against the parent protein; the word gives no strength.

B1: Nb193纳米抗体 (Nb193 nanobody) (VHH, not shown: small tags and cut ends)
VHH: AVQLVESGGGLVQAGGSLRLSCVASGSTLERYAVYWYRQPPGKERELVAGIMRGGNINYADSVKGRFTISKDYAKNTLILQMNSLKPEDTAVYYCNAGGSRFGYWGQGTQVTVSS
Regarding B1, the binding result in test [1] and in test [2] was “binds” throughout.

These data come from patent publication CN113999308A.
